Experimental data taken from the supplement of paper PMC10735217.
Counter-ions that a name gives are not always drawn. Some of the results follow. Single values are uncertain here, since repeats match poorly.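 The human kidney-derived cells carry a stably integrated construct of eight TEAD-binding elements driving luciferase, read by luminescence in a drug-repurposing library screen. A compound counts as a hit when its signal is more than five robust Z scores above the plate mean.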

Test system: HEK293A TEAD-LUC reporter
Test: TEAD-luciferase reporter activity (YAP activation), robust Z score vs plate; higher = stronger YAP/TEAD activation
Conditions: 24 h

Compound | TEAD-luciferase reporter activity (compound concentration: 200 nM) | TEAD-luciferase reporter activity (compound concentration: 2 uM) | TEAD-luciferase reporter activity (compound concentration: 10 uM)
CCOC(=O)[C@H](Cc1ccccc1)NC(=O)c1cc(Cl)c(OCCN2CCN(C)CC2)c(Cl)c1O | inactive: -0.999 | inactive: -1.68 | inactive: 4.38
CC(Cc1ccc(O)c(O)c1)C(C)Cc1ccc(O)c(O)c1 (stereo not given) [Nordihydroguaiaretic acid] | inactive: 0.551 |  | active: 6.12
CC(Cc1ccc(O)c(O)c1)C(C)Cc1ccc(O)c(O)c1 (stereo not given) [Masoprocol] |  | inactive: -0.0431 | 
CCOC(=O)c1ccccc1OC(=O)CCCCCCCC(=O)Oc1ccccc1C(=O)OCC | inactive: 1.76 | inactive: -1.97 | inactive: 0.0155
[O]=[W](=[O])([OH])[OH] [Sodium tungstate dihydrate] | inactive: -0.668 | inactive: 0.248 | inactive: -0.317
O=c1c2c(c1=O)N(CCP(=O)(O)O)CCCN2 [Perzinfotel] | inactive: -0.535 | inactive: -0.397 | inactive: 0.232
C#Cc1cccc(-c2cc(=O)n(C)c3ccc(C(O)(c4ccc(Cl)cc4)c4cncn4C)cc23)c1 (stereo not given) | inactive: -1.06 | inactive: -0.392 | inactive: 0.796
CCOc1ccc(S(=O)(=O)Nc2ncccn2)cc1 | inactive: 2.45 | inactive: -0.893 | inactive: -1.49
[CH3][Co+][N]1/C2=C(/C)C3=N/C(=C\C4=NC(=C(/C)C5=N[C@H]([C@H](CC(N)=O)[C@@]5(C)CCC(=O)NCC(C)OP(=O)([O-])O[C@H]5[C@@H](O)[C@@H](n6cnc7cc(C)c(C)cc76)O[C@@H]5CO)[C@@]1(C)[C@@](C)(CC(N)=O)[C@@H]2CCC(N)=O)/[C@@H](CCC(N)=O)C4(C)C)[C@@H](CCC(N)=O)[C@]3(C)CC(N)=O (stereo not given in full) [Mecobalamin] | inactive: -1.06 | inactive: -2.19 | inactive: -2.23
COCCn1c(N[C@@H](CO)c2ccc(OC)c(OC)c2)nc2c1c(=O)n(C)c(=O)n2C | inactive: -0.473 | inactive: 0.111 | active: 5.22
Oc1ccc(C2COc3cc(O)ccc3C2)cc1 (stereo not given) | inactive: -0.554 | inactive: 4.41 | inactive: 0.96
O=C(OCCCc1ccccc1)c1ccccc1 | inactive: 0.556 | inactive: -1.29 | inactive: -0.207
Nc1ncc(-c2ccccc2Cl)c(N)n1 | inactive: 0.543 | inactive: -0.434 | inactive: -0.243
Cc1nc2ccc(CCCNC(=O)C3(CC(C)C(=O)O)CCCC3)cc2s1 (stereo not given) | inactive: -0.756 | inactive: 0.214 | inactive: 1.04
O=C(CN1CCNCC1)NC1CCCCC1 [Esaprazole hydrochloride] | inactive: 0.35 | inactive: -0.586 | inactive: -1.21
CC(C)OCOCCCOn1cnc2cnc(N)nc21 | inactive: -1.4 | inactive: 0.346 | inactive: 2.99
Cc1cc2nc3c4ccccc4n(CCN(C)C)c3nc2cc1C | inactive: 0.336 | inactive: 1.46 | active: 9.54
Cc1c(N2CC(NC(C)C)C2)c(F)cc2c(=O)c(C(=O)O)cn(-c3nc(N)c(F)cc3F)c12 | inactive: 2.05 | inactive: -0.658 | inactive: -1.15
CCc1nc2c(C)nc(C)cc2n1-c1ccc(CCNC(=O)NS(=O)(=O)c2ccc(C)cc2)cc1 | inactive: -0.232 | inactive: -1.65 | inactive: 1.88
O=C(NCCC1CCCCC1)c1ccc2nccn2c1 | inactive: 1.34 |  | inactive: 2.19
NC(C(=O)N[C@@H]1C(=O)N2C(C(=O)O)=C(Cl)CS[C@H]12)c1ccccc1 (stereo not given in full) [Cefaclor] | inactive: 0.678 |  | inactive: -0.145
NC(C(=O)N[C@@H]1C(=O)N2C(C(=O)O)=C(Cl)CS[C@H]12)c1ccccc1 (stereo not given in full) [cefaclor] |  | inactive: -0.815 | 
COc1ccc(CCN(C)CCCN2CCc3cc(OC)c(OC)cc3C2=O)cc1OC | inactive: 1.83 | inactive: 1.09 | inactive: 1.05
NC(=O)c1cc(-c2ccncc2)[nH]c1-c1ccccc1 | inactive: 0.229 | inactive: -1.69 | inactive: -2.34
CCCCCC(O)CCCC(=O)[O-] (stereo not given) | inactive: -2.17 | inactive: 1.08 | inactive: -1.31
CC(=O)N1CC2(Cc3ccccc3CN2C(C)=O)C1 | inactive: -2.56 |  | inactive: 1.56
Cc1ncc([N+](=O)[O-])n1CC(O)CCl (stereo not given) | inactive: -0.202 |  | inactive: -1.56

Looked up one by one from the entries so far:
Compound | TEAD-luciferase reporter activity (compound concentration: 200 nM) | TEAD-luciferase reporter activity (compound concentration: 2 uM) | TEAD-luciferase reporter activity (compound concentration: 10 uM)
COCCn1c(N[C@@H](CO)c2ccc(OC)c(OC)c2)nc2c1c(=O)n(C)c(=O)n2C | inactive: -0.473 | inactive: 0.111 | active: 5.22
CC(Cc1ccc(O)c(O)c1)C(C)Cc1ccc(O)c(O)c1 (stereo not given) [Nordihydroguaiaretic acid] | inactive: 0.551 |  | active: 6.12
CC(Cc1ccc(O)c(O)c1)C(C)Cc1ccc(O)c(O)c1 (stereo not given) [Masoprocol] |  | inactive: -0.0431 | 

Remaining list, next part

Compound | TEAD-luciferase reporter activity (compound concentration: 200 nM) | TEAD-luciferase reporter activity (compound concentration: 2 uM) | TEAD-luciferase reporter activity (compound concentration: 10 uM)
Cc1ncc([N+](=O)[O-])n1CC(O)CCl (stereo not given) [Ornidazole] |  | inactive: 3.5 | 
CCCCCCCC(=O)NCCCC[C@H](NC(=O)[C@H](Cc1c[nH]c2ccccc12)NC(=O)[C@H](CC(N)=O)NC(=O)[C@@H]1CCC(=O)N1)C(=O)O | inactive: -0.624 | inactive: -0.494 | inactive: -0.00661
COc1ccc(CCNC[C@H](O)c2ccc(O)cc2)cc1OC [Denopamine] | inactive: -2.24 | inactive: -0.767 | inactive: 2.24
CC#C[C@@H](CC(=O)O)c1ccc(OCc2ccc(CN3CCC4(C=Cc5ccccc54)CC3)cc2)cc1 | inactive: -1.08 | inactive: -1.05 | inactive: -1.03
C[C@]12CCC3C(CC=C4CC5(CC[C@@]43CCN)OCCO5)C1CCC21OCCO1 (stereo not given in full) | inactive: -2.49 | inactive: 1.63 | inactive: 4.76
Cc1c(NCCN2CCCC2)cc(C(=O)CCC(F)(F)F)cc1N1CCN(c2ncnc3[nH]nc(Br)c23)CC1 | inactive: -0.684 | inactive: 2.54 | inactive: -0.575
O=Cc1ccc(N2CCOCC2)cc1O | inactive: -1.5 | inactive: -1.2 | inactive: 1.08
COc1ccc2c(c1OCc1ccccc1)C[C@H](C(=O)O)N(C(=O)C(c1ccccc1)c1ccccc1)C2 | inactive: 0.283 | inactive: -1.03 | inactive: -0.626
CC/C=C\C/C=C\C/C=C\C/C=C\C/C=C\C/C=C\CCC(=O)OCc1cccnc1 | inactive: -1.81 | inactive: 2.9 | inactive: 1.17
CCOC(=O)[C@H](CCc1ccccc1)N[C@@H](C)C(=O)N(CC(=O)O)C1Cc2ccccc2C1 [delapril] | inactive: -0.446 | inactive: -0.153 | inactive: -0.344
O=C([O-])C1=CS[C@@H]2/C(=C\c3cn4c(n3)COCC4)C(=O)N12 [BLI 489 Hydrate] | inactive: -0.00514 | inactive: 0.459 | inactive: 3.22
C[S+](C)CCC(N)C(=O)O (stereo not given) [Cabagin] | inactive: 0.134 | inactive: -0.632 | inactive: -0.611
COC(=O)OCOc1c2n(ccc1=O)N([C@@H]1c3ccccc3SCc3c1ccc(F)c3F)[C@@H]1COCCN1C2=O [Baloxavir marboxil] | inactive: -0.82 |  | inactive: 0.749
O=C(COCC(=O)Nc1ccc(Cl)cc1C(=O)O)Nc1cccc(-c2ccoc2)c1 | inactive: -1.79 | inactive: 1.01 | inactive: 0.149
CC#CCC(C)[C@H](O)/C=C/[C@@H]1[C@H]2C/C(=C/CCCC(=O)O)C[C@H]2C[C@H]1O (stereo not given in full) [iloprost] |  | inactive: -0.278 | 
CC#CCC(C)[C@H](O)/C=C/[C@@H]1[C@H]2C/C(=C/CCCC(=O)O)C[C@H]2C[C@H]1O (stereo not given in full) [Iloprost] | inactive: 2.26 |  | inactive: 3.76
CCCC[C@H](C)C[C@H](O)/C=C/[C@H]1[C@H](O)CC(=O)[C@@H]1CCCC/C=C/C(=O)O [limaprost alfadex] | inactive: -1.47 | inactive: 0.342 | inactive: 1.82
CCN1CCC(c2cc(F)cc(S(C)(=O)=O)c2)CC1 | inactive: -0.229 | inactive: -1.61 | inactive: 0.887
CCCCCCCCCC(=O)N[C@H]1[C@H](Oc2c3cc4cc2Oc2ccc(cc2Cl)[C@@H](O[C@@H]2O[C@H](CO)[C@@H](O)[C@H](O)[C@H]2NC(C)=O)[C@@H]2NC(=O)[C@H](NC(=O)[C@@H]4NC(=O)[C@H]4NC(=O)[C@@H](Cc5ccc(c(Cl)c5)O3)NC(=O)[C@@H]([NH3+])c3ccc(O)c(c3)Oc3cc(O)cc4c3)c3ccc(O)c(c3)-c3c(O[C@H]4O[C@H](CO)[C@@H](O)[C@H](O)[C@@H]4O)cc(O)cc3C(C(=O)O)NC2=O)O[C@H](CO)[C@@H](O)[C@@H]1O (stereo not given in full) [Teicoplanin] | inactive: -0.679 | inactive: 1.47 | inactive: -0.214
CCOC(=O)CCNC(=O)N[C@H]1CCN(c2ccc(C(=N)NOC(=O)OCC)cc2)C1=O | inactive: -0.831 | inactive: -0.0804 | inactive: 1.26
OC(CO/N=C(\Cl)c1cccnc1)CN1CCCCC1 (stereo not given) | inactive: -1.38 | inactive: 2.56 | active: 8.19
C[C@H](N)C(=O)N[C@@H](CCC(=O)O)C(=O)N[C@@H](CC(=O)O)C(=O)NCC(=O)O [Epithalon] | inactive: -0.935 | inactive: -1.12 | inactive: -1.37
N=C(N)NCc1cccc(I)c1 [m-Iodobenzylguanidine hemisulfate] | active: 6.49 |  | inactive: 0.789
N=C(N)NCc1cccc(I)c1 [Iobenguane sulfate] |  | inactive: 0.0616 | 
CCCCCCCCNC(=O)/C(C#N)=C\c1c(C)n(CCCN(C)C)c2ccccc12 |  | inactive: 0.481 | 
CC(C)(CC1Cc2ccccc2C1)NC[C@@H](O)COc1cc(CCC(=O)O)ccc1C#N |  | inactive: -0.347 | 
C=CC(=O)Nc1cc(Nc2nccc(-c3cn(C)c4ccccc34)n2)c(OC)cc1N(C)CCN(C)C | inactive: 1.63 | inactive: 0.621 | inactive: 3.18
